Source: paper doi:10.1101/2025.03.06.641037
Results are given in words; binding and its absence hold for the method and conditions named. In cells and extracts the contact can be indirect. These calls come from enrichment with a bait or labelling near it, and not all partners need be listed. Tags and fused reporters may be left off the sequences shown. One block for each binder: values may come before it.

Biological target: T1, F2V5-ADNP (Activity-Dependent Neuroprotective Protein, endogenously tagged) (human (endogenous in H9-derived hNSCs)) (UniProt Q9H2P0)
T1 sequence: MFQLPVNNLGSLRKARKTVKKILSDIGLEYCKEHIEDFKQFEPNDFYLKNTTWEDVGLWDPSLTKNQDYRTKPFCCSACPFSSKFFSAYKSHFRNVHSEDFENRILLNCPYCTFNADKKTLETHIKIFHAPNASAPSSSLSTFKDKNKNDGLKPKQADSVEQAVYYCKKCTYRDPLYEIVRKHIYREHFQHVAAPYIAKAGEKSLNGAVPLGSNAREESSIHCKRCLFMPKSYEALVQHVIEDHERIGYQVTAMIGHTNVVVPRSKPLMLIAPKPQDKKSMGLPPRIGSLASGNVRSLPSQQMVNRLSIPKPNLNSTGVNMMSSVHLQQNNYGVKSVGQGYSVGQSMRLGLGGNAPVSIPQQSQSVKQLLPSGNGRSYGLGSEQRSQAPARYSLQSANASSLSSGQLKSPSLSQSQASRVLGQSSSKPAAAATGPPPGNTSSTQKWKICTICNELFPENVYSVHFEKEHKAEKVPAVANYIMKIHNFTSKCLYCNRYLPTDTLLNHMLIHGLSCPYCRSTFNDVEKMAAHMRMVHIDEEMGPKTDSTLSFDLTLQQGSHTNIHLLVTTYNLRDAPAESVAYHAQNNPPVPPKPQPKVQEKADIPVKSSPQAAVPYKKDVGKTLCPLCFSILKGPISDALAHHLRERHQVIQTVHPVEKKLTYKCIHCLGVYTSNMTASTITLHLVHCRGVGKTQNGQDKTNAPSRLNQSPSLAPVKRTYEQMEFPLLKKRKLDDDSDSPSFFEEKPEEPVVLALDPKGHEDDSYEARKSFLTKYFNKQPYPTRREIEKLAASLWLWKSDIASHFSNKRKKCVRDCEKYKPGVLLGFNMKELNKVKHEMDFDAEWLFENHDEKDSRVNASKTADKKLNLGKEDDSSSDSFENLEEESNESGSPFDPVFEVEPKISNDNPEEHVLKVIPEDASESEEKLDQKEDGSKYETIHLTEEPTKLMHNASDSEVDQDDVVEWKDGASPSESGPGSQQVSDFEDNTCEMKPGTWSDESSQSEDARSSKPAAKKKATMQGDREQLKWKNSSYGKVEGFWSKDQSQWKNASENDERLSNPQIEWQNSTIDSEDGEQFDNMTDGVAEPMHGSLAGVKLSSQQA
Test: affinity purification with mass spectrometry

binding: binds
B1: ZMYM2 (protein, UniProt Q9UBW7 1-1377)
chain: MDTSSVGGLELTDQTPVLLGSTAMATSLTNVGNSFSGPANPLVSRSNKFQNSSVEDDDDVVFIEPVQPPPPSVPVVADQRTITFTSSKNEELQGNDSKITPSSKELASQKGSVSETIVIDDEEDMETNQGQEKNSSNFIERRPPETKNRTNDVDFSTSSFSRSKVNAGMGNSGITTEPDSEIQIANVTTLETGVSSVNDGQLENTDGRDMNLMITHVTSLQNTNLGDVSNGLQSSNFGVNIQTYTPSLTSQTKTGVGPFNPGRMNVAGDVFQNGESATHHNPDSWISQSASFPRNQKQPGVDSLSPVASLPKQIFQPSVQQQPTKPVKVTCANCKKPLQKGQTAYQRKGSAHLFCSTTCLSSFSHKPAPKKLCVMCKKDITTMKGTIVAQVDSSESFQEFCSTSCLSLYEDKQNPTKGALNKSRCTICGKLTEIRHEVSFKNMTHKLCSDHCFNRYRMANGLIMNCCEQCGEYLPSKGAGNNVLVIDGQQKRFCCQSCVSEYKQVGSHPSFLKEVRDHMQDSFLMQPEKYGKLTTCTGCRTQCRFFDMTQCIGPNGYMEPYCSTACMNSHKTKYAKSQSLGIICHFCKRNSLPQYQATMPDGKLYNFCNSSCVAKFQALSMQSSPNGQFVAPSDIQLKCNYCKNSFCSKPEILEWENKVHQFCSKTCSDDYKKLHCIVTYCEYCQEEKTLHETVNFSGVKRPFCSEGCKLLYKQDFARRLGLRCVTCNYCSQLCKKGATKELDGVVRDFCSEDCCKKFQDWYYKAARCDCCKSQGTLKERVQWRGEMKHFCDQHCLLRFYCQQNEPNMTTQKGPENLHYDQGCQTSRTKMTGSAPPPSPTPNKEMKNKAVLCKPLTMTKATYCKPHMQTKSCQTDDTWRTEYVPVPIPVPVYIPVPMHMYSQNIPVPTTVPVPVPVPVFLPAPLDSSEKIPAAIEELKSKVSSDALDTELLTMTDMMSEDEGKTETTNINSVIIETDIIGSDLLKNSDPETQSSMPDVPYEPDLDIEIDFPRAAEELDMENEFLLPPVFGEEYEEQPRPRSKKKGAKRKAVSGYQSHDDSSDNSECSFPFKYTYGVNAWKHWVKTRQLDEDLLVLDELKSSKSVKLKEDLLSHTTAELNYGLAHFVNEIRRPNGENYAPDSIYYLCLGIQEYLCGSNRKDNIFIDPGYQTFEQELNKILRSWQPSILPDGSIFSRVEEDYLWRIKQLGSHSPVALLNTLFYFNTKYFGLKTVEQHLRLSFGTVFRHWKKNPLTMENKACLRYQVSSLCGTDNEDKITTGKRKHEDDEPVFEQIENTANPSRCPVKMFECYLSKSPQNLNQRMDVFYLQPECSSSTDSPVWYTSTSLDRNTLENMLVRVLLVKDIYDKDNYELDEDTD

binding: binds
B2: ZMYM3 (protein, UniProt Q14202 1-1370)
chain: MDPSDFPSPFDPLTLPEKPLAGDLPVDMEFGEDLLESQTAPTRGWAPPGPSPSSGALDLLDTPAGLEKDPGVLDGATELLGLGGLLYKAPSPPEVDHGPEGTLAWDAGDQTLEPGPGGQTPEVVPPDPGAGANSCSPEGLLEPLAPDSPITLQSPHIEEEETTSIATARRGSPGQEEELPQGQPQSPNAPPSPSVGETLGDGINSSQTKPGGSSPPAHPSLPGDGLTAKASEKPPERKRSERVRRAEPPKPEVVDSTESIPVSDEDSDAMVDDPNDEDFVPFRPRRSPRMSLRSSVSQRAGRSAVGTKMTCAHCRTPLQKGQTAYQRKGLPQLFCSSSCLTTFSKKPSGKKTCTFCKKEIWNTKDSVVAQTGSGGSFHEFCTSVCLSLYEAQQQRPIPQSGDPADATRCSICQKTGEVLHEVSNGSVVHRLCSDSCFSKFRANKGLKTNCCDQCGAYIYTKTGSPGPELLFHEGQQKRFCNTTCLGAYKKKNTRVYPCVWCKTLCKNFEMLSHVDRNGKTSLFCSLCCTTSYKVKQAGLTGPPRPCSFCRRSLSDPCYYNKVDRTVYQFCSPSCWTKFQRTSPEGGIHLSCHYCHSLFSGKPEVLDWQDQVFQFCCRDCCEDFKRLRGVVSQCEHCRQEKLLHEKLRFSGVEKSFCSEGCVLLYKQDFTKKLGLCCITCTYCSQTCQRGVTEQLDGSTWDFCSEDCKSKYLLWYCKAARCHACKRQGKLLETIHWRGQIRHFCNQQCLLRFYSQQNQPNLDTQSGPESLLNSQSPESKPQTPSQTKVENSNTVRTPEENGNLGKIPVKTRSAPTAPTPPPPPPPATPRKNKAAMCKPLMQNRGVSCKVEMKSKGSQTEEWKPQVIVLPIPVPIFVPVPMHLYCQKVPVPFSMPIPVPVPMFLPTTLESTDKIVETIEELKVKIPSNPLEADILAMAEMIAEAEELDKASSDLCDLVSNQSAEGLLEDCDLFGPARDDVLAMAVKMANVLDEPGQDLEADFPKNPLDINPSVDFLFDCGLVGPEDVSTEQDLPRTMRKGQKRLVLSESCSRDSMSSQPSCTGLNYSYGVNAWKCWVQSKYANGETSKGDELRFGPKPMRIKEDILACSAAELNYGLAQFVREITRPNGERYEPDSIYYLCLGIQQYLLENNRMVNIFTDLYYLTFVQELNKSLSTWQPTLLPNNTVFSRVEEEHLWECKQLGVYSPFVLLNTLMFFNTKFFGLQTAEEHMQLSFTNVVRQSRKCTTPRGTTKVVSIRYYAPVRQRKGRDTGPGKRKREDEAPILEQRENRMNPLRCPVKFYEFYLSKCPESLRTRNDVFYLQPERSCIAESPLWYSVIPMDRSMLESMLNRILAVREIYEELGRPGEEDLD

binding: binds
B3: POGZ (protein, UniProt Q7Z3K3 1-1410)
chain: MADTDLFMECEEEELEPWQKISDVIEDSVVEDYNSVDKTTTVSVSQQPVSAPVPIAAHASVAGHLSTSTTVSSSGAQNSDSTKKTLVTLIANNNAGNPLVQQGGQPLILTQNPAPGLGTMVTQPVLRPVQVMQNANHVTSSPVASQPIFITTQGFPVRNVRPVQNAMNQVGIVLNVQQGQTVRPITLVPAPGTQFVKPTVGVPQVFSQMTPVRPGSTMPVRPTTNTFTTVIPATLTIRSTVPQSQSQQTKSTPSTSTTPTATQPTSLGQLAVQSPGQSNQTTNPKLAPSFPSPPAVSIASFVTVKRPGVTGENSNEVAKLVNTLNTIPSLGQSPGPVVVSNNSSAHGSQRTSGPESSMKVTSSIPVFDLQDGGRKICPRCNAQFRVTEALRGHMCYCCPEMVEYQKKGKSLDSEPSVPSAAKPPSPEKTAPVASTPSSTPIPALSPPTKVPEPNENVGDAVQTKLIMLVDDFYYGRDGGKVAQLTNFPKVATSFRCPHCTKRLKNNIRFMNHMKHHVELDQQNGEVDGHTICQHCYRQFSTPFQLQCHLENVHSPYESTTKCKICEWAFESEPLFLQHMKDTHKPGEMPYVCQVCQYRSSLYSEVDVHFRMIHEDTRHLLCPYCLKVFKNGNAFQQHYMRHQKRNVYHCNKCRLQFLFAKDKIEHKLQHHKTFRKPKQLEGLKPGTKVTIRASRGQPRTVPVSSNDTPPSALQEAAPLTSSMDPLPVFLYPPVQRSIQKRAVRKMSVMGRQTCLECSFEIPDFPNHFPTYVHCSLCRYSTCCSRAYANHMINNHVPRKSPKYLALFKNSVSGIKLACTSCTFVTSVGDAMAKHLVFNPSHRSSSILPRGLTWIAHSRHGQTRDRVHDRNVKNMYPPPSFPTNKAATVKSAGATPAEPEELLTPLAPALPSPASTATPPPTPTHPQALALPPLATEGAECLNVDDQDEGSPVTQEPELASGGGGSGGVGKKEQLSVKKLRVVLFALCCNTEQAAEHFRNPQRRIRRWLRRFQASQGENLEGKYLSFEAEEKLAEWVLTQREQQLPVNEETLFQKATKIGRSLEGGFKISYEWAVRFMLRHHLTPHARRAVAHTLPKDVAENAGLFIDFVQRQIHNQDLPLSMIVAIDEISLFLDTEVLSSDDRKENALQTVGTGEPWCDVVLAILADGTVLPTLVFYRGQMDQPANMPDSILLEAKESGYSDDEIMELWSTRVWQKHTACQRSKGMLVMDCHRTHLSEEVLAMLSASSTLPAVVPAGCSSKIQPLDVCIKRTVKNFLHKKWKEQAREMADTACDSDVLLQLVLVWLGEVLGVIGDCPELVQRSFLVASVLPGPDGNINSPTRNADMQEELIASLEEQLKLSGEHSESSTPRPRSSPEETIEPESLHQLFEGESETESFYGFEEADLDLMEI
